Results are given in words; binding and its absence hold for the method and conditions named. In cells and extracts the contact can be indirect. Some results given as binding are weak or reduced against the parent protein; the word gives no strength.

The target in experiment [1] is T1, glypican-1 (mouse) (mouse) (UniProt Q9QZF2).
T1 sequence: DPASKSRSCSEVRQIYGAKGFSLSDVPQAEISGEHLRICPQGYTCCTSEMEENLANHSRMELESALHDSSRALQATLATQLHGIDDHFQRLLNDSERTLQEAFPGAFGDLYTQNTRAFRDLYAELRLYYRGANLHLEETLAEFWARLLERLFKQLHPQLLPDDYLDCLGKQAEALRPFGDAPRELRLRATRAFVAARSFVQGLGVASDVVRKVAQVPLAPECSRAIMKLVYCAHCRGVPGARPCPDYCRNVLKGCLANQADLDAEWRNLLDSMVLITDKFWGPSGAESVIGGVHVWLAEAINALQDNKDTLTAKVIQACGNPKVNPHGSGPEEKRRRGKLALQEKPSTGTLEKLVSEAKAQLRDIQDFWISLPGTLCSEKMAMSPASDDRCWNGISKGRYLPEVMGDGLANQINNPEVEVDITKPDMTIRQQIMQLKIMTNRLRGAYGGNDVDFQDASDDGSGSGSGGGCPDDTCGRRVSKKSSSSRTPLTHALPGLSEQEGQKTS
The experiment can be described thus: co-IP; cortex lysates of 12-month-old mice in 1% CHAPS, 50 mM HEPES, 10 mM EDTA, 150 mM NaCl, pH 7.4; anti-DcR3, anti-syndecan-1, anti-glypican-1 or anti-Aβ (6E10) at 4 °C overnight, protein G beads, Western blot. In general terms: In western blotting, separated proteins are transferred to a membrane and probed.

Experiment [2] concerns the target T2, syndecan-1 (mouse) (mouse) (UniProt P18828).
T2 sequence: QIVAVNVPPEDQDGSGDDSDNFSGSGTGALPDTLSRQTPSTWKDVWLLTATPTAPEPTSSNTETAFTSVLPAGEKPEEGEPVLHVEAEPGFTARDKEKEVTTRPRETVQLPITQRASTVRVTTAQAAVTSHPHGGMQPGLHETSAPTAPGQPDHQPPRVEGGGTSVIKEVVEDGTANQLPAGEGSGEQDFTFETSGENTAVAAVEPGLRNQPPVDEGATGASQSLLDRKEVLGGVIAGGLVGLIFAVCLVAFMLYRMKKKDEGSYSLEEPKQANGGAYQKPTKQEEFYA
The experiment is described as above.

B1: Decoy receptor 3 (DcR3)/TNFRSF6B, human, transgene in mice (receptor, UniProt O95407 30-300)
chain: VAETPTYPWRDAETGERLVCAQCPPGTFVQRPCRRDSPTTCGPCPPRHYTQFWNYLERCRYCNVLCGEREEEARACHATHNRACRCRTGFFAHAGFCLEHASCPPGAGVIAPGTPSQNTQCQPCPPGTFSASSSSSEQCQPHRNCTALGLALNVPGSSSHDTLCTSCTGFPLSTRVPGAEECERAVIDFVAFQDISIKRLQRLLQALEAPEGWGPTPRAGRAALQLKLRRRLTELLGAQDGALLVRLLQALRVARMPGLERSVRERFLPVH
Regarding B1, the binding result in experiment [1] and in experiment [2] was “binds” throughout.

(Values after article PMC5402663.)
